Source: article PMC5725456
No constants are given. Whether binding was seen depends on the method and setting. Binding seen in cells or lysates may run through a third protein. Some results given as binding are weak or reduced against the parent protein; the word gives no strength. Where a sequence is shown, tags or fusion partners need not be part of it.

Molecular target: T1, myc-tagged TRAF6 (wild type), P70196
T1 chain: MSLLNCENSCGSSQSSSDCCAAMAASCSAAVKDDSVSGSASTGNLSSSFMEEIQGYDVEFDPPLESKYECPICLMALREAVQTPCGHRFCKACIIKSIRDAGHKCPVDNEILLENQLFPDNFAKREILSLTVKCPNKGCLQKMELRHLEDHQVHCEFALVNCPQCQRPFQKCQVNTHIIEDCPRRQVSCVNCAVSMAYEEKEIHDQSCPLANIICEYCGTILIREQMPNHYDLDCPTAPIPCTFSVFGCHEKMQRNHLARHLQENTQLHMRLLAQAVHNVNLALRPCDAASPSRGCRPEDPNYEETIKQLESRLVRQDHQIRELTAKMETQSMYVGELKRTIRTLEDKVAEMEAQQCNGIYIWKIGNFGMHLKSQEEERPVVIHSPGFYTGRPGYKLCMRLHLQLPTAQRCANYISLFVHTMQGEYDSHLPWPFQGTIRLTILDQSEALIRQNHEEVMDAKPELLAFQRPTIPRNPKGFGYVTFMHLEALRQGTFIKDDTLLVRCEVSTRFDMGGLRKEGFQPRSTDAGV
Experiment: co-IP; HEK293T cells expressing both tagged constructs; immunoprecipitation by HA (or myc) and immunoblot for myc (or HA); in the presence or absence of Mirt2
Settings: remark: other sources report otherwise

B1: myc-tagged TRAF6 (wild type), P70196 1-530 (protein)
chain: T1 chain
  binding: binds
